Results deposited as PubChem BioAssay AID1224830 (NIAID, 2016).
In all, the deposit lists about 18,000 reagents; below is an unselected part. Of all reagents, about 2,900 (16%) were called active. 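Calls are made per well; low scores hint the gene aids the LPS response, high scores that it dampens it.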 Repeated entries: four replicate wells of each siRNA pool. No sequences are given here.

- Assay: 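Genes whose knock-down alters the TNF-alpha reporter response to LPS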 (primary screen)
- System: human THP-1 monocytic leukaemia cells, TNF dual-luciferase reporter clone, PMA-differentiated to macrophage-like cells
- Reagents: siRNA pool against human genes, 50 nM
- Duration: LPS for 4 h, given about 3 days after siRNA transfection
- Treatment: bacterial LPS (TLR4 ligand), 10 ng/ml
- Detection: 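TNF firefly reporter luminescence divided by renilla, normalised to the plate median, then turned into a robust z-score for each replicate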
- Reading the numbers: TNF reporter robust z-score: higher = stronger TNF reporter response to LPS
- Hit rule: 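a well is active when its z-score exceeds 2.8 or falls below -1.5; control wells carry no call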

Target gene | TNF reporter robust z-score | activity call
CPN2 | -0.3 | inactive
CPN2 | -0.01 | inactive
CPN2 | -0.15 | inactive
CPN2 | -0.47 | inactive
ZNF414 | 0.63 | inactive
ZNF414 | -0.29 | inactive
ZNF414 | 0.48 | inactive
ZNF414 | 1.02 | inactive
PPFIBP2 | -0.54 | inactive
PPFIBP2 | 0.45 | inactive
PPFIBP2 | 1.08 | inactive
PPFIBP2 | 0.8 | inactive
PFDN4 | -0.29 | inactive
PFDN4 | -0.31 | inactive
PFDN4 | -0.06 | inactive
PFDN4 | -0.56 | inactive
LDAH | 0.81 | inactive
LDAH | -0.09 | inactive
LDAH | 1.24 | inactive
LDAH | 0.44 | inactive
RPL15 | -0.17 | inactive
RPL15 | 0.32 | inactive
RPL15 | 1.16 | inactive
RPL15 | 0.37 | inactive
CALR3 | 0.45 | inactive
CALR3 | 0.13 | inactive
CALR3 | -0.23 | inactive
CALR3 | 1.01 | inactive
SLC12A6 | 0.28 | inactive
SLC12A6 | 0.22 | inactive
SLC12A6 | 1.31 | inactive
SLC12A6 | 1.2 | inactive
TMPRSS12 | 1.95 | inactive
TMPRSS12 | 1.78 | inactive
TMPRSS12 | 2.17 | inactive
TMPRSS12 | 2.66 | inactive
ERC1 | -1.82 | active
ERC1 | -1.83 | active
ERC1 | -1.8 | active
ERC1 | -1.62 | active
TBC1D3G | -0.38 | inactive
TBC1D3G | 1.51 | inactive
TBC1D3G | 0.41 | inactive
TBC1D3G | 1.01 | inactive
FAM181A | -0.17 | inactive
FAM181A | -0.13 | inactive
FAM181A | 0.11 | inactive
FAM181A | 1.04 | inactive
SLFN12 | -1.07 | inactive
SLFN12 | -1.53 | active
SLFN12 | -1.61 | active
SLFN12 | -1.37 | inactive
CMTM3 | -1.33 | inactive
CMTM3 | -1.05 | inactive
CMTM3 | -0.82 | inactive
CMTM3 | -1.23 | inactive
PTPRS | -1.37 | inactive
PTPRS | -1.43 | inactive
PTPRS | -1.2 | inactive
PTPRS | -0.92 | inactive
GBE1 | -0.32 | inactive
GBE1 | 0.31 | inactive
GBE1 | 0.73 | inactive
GBE1 | 0.82 | inactive
TMEM169 | 2.71 | inactive
TMEM169 | 1.35 | inactive
TMEM169 | 1.42 | inactive
TMEM169 | 1.79 | inactive
BPIFB6 | 0.65 | inactive
BPIFB6 | 0.43 | inactive
BPIFB6 | 0.56 | inactive
BPIFB6 | 0.42 | inactive
DNAAF3 | -1.91 | active
DNAAF3 | -1.82 | active
DNAAF3 | -1.96 | active
DNAAF3 | -1.62 | active
HAS2 | 2.24 | inactive
HAS2 | 0.37 | inactive
HAS2 | 0.52 | inactive
HAS2 | 1.01 | inactive
SCGB2A1 | 0.49 | inactive
SCGB2A1 | -0.38 | inactive
SCGB2A1 | -0.17 | inactive
SCGB2A1 | -0.24 | inactive
FBXW2 | 1.51 | inactive
FBXW2 | 0.26 | inactive
FBXW2 | 1.72 | inactive
FBXW2 | -1.24 | inactive
SDC4 | -0.32 | inactive
SDC4 | 0.24 | inactive
SDC4 | 0.05 | inactive
SDC4 | 0.4 | inactive
LRRC3B | 10.6 | active
LRRC3B | -0.54 | inactive
LRRC3B | -1.6 | active
LRRC3B | -0.52 | inactive
KYAT1 | 1.71 | inactive
KYAT1 | 2.04 | inactive
KYAT1 | 0.56 | inactive
KYAT1 | 3.01 | active
ELF3 | 0.63 | inactive
ELF3 | 2.04 | inactive
ELF3 | 1.05 | inactive
ELF3 | 1.58 | inactive
FRY | -1.03 | inactive
FRY | -1.24 | inactive
FRY | -0.69 | inactive
FRY | -1.19 | inactive
H4C6 | -1.27 | inactive
H4C6 | -1.03 | inactive
H4C6 | 0.41 | inactive
H4C6 | -0.62 | inactive

In a second layout: 7 of the entries above.
{"Target gene": "TMPRSS12", "TNF reporter robust z-score": 1.78, "activity call": "inactive"}
{"Target gene": "TMPRSS12", "TNF reporter robust z-score": 2.17, "activity call": "inactive"}
{"Target gene": "TMPRSS12", "TNF reporter robust z-score": 2.66, "activity call": "inactive"}
{"Target gene": "ERC1", "TNF reporter robust z-score": -1.82, "activity call": "active"}
{"Target gene": "ERC1", "TNF reporter robust z-score": -1.83, "activity call": "active"}
{"Target gene": "ERC1", "TNF reporter robust z-score": -1.8, "activity call": "active"}
{"Target gene": "ERC1", "TNF reporter robust z-score": -1.62, "activity call": "active"}
